Data published in article doi:10.1101/2022.01.28.478199.

By UniProt entry, the sequences of proteins in these tests, tags left out. Where a name states a change or a piece, a line headed by the entry shows the natural chain unless it says otherwise. Residues count along the entry.
UniProt P33416: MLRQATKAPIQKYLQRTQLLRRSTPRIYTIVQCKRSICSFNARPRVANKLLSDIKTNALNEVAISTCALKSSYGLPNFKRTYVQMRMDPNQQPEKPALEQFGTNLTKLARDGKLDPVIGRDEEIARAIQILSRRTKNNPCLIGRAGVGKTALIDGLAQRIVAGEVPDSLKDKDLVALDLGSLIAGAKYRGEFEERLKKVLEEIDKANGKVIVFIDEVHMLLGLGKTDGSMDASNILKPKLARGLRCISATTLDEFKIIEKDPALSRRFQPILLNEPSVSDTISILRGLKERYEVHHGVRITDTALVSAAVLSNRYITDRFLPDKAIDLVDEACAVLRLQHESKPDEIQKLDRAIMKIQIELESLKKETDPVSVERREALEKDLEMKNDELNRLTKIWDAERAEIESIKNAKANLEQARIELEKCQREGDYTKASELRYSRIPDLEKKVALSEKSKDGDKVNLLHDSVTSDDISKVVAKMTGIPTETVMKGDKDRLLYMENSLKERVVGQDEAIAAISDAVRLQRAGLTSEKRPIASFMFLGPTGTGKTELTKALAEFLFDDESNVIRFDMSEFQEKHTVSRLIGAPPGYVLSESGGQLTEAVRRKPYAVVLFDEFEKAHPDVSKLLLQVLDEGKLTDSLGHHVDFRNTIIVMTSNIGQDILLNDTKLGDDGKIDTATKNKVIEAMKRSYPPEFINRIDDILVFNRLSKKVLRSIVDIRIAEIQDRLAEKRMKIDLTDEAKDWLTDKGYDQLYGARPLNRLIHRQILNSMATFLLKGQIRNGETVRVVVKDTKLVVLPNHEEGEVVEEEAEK
UniProt P0CS90, residues 24-654: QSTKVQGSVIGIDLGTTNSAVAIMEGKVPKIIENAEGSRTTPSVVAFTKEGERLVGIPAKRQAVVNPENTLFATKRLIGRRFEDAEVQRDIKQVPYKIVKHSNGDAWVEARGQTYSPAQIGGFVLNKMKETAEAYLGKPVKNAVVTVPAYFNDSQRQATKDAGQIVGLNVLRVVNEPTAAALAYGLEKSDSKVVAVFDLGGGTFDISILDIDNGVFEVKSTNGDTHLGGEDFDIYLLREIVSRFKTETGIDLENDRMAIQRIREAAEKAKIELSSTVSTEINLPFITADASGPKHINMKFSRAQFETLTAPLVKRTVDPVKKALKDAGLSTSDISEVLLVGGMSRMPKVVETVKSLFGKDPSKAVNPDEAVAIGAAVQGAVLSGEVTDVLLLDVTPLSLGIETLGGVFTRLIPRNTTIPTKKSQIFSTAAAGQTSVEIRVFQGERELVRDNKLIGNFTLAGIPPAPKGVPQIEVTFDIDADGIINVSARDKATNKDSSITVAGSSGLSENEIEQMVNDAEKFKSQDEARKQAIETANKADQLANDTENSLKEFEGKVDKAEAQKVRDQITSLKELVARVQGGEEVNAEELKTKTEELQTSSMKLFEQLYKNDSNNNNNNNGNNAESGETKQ

Biological target: Hsp78TR-6xHis (Hsp78 E216Q/E614Q Walker B mutant with a C-terminal 6x polyhistidine-tag) (S. cerevisiae) (UniProt P33416)
Assay: pull-down

Substance: Ssc1 (mtHsp70, main Hsp70 chaperone of the mitochondrial matrix) (from UniProt P0CS90 24-654)
- binding: binds

Results are given in words; binding and its absence hold for the method and conditions named. Binding seen in cells or lysates may run through a third protein. Binding can be weak; no strength is given.
